Laboratory results reported in patent US20020035738A1, “Plant protection method” (priority 1996, published 2002).
Some entries share one result that the patent states for a list of compounds.

System: pPDF1.2-GUS-tNOS reporter gene
Test: β-glucuronidase activity in pPDF1.2-GUS-tNOS tobacco plants upon chemical treatment
Type: in vivo, tobacco (cv. Xanthi-nc)
Conditions: 8-week-old tobacco, treated leaves 48 h after treatment; SA S mM, MeJA 50 μM, paraquat 25 μgM

SMILES	increase in β-glucuronidase activity
CC/C=C\CC1C(=O)CCC1CC(=O)OC (centres unmarked) [methyl jasmonate]	more than 35 fold
C[n+]1ccc(-c2cc[n+](C)cc2)cc1 [paraquat]	more than 35 fold
